# Screening data

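Luminescence from an EWS-FLI1 target-promoter (NR0B1) reporter, set against a CMV-promoter reporter, two days after silencing single genes in TC32 Ewing sarcoma cells.
Each siRNA was applied at 20 nM.
A z-score of the log NR0B1-over-CMV signal, less the median of siRNAs with the same seed; more negative means a stronger specific loss of the NR0B1 reporter.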

This is part of the screen; most of the strongest results are not listed here.
Sequences are the guide (antisense) strand, without overhang.

UCCUCGUUCAAUAUACUUG against SLITRK4 gave seed-corrected z-score 1.237. For UCGCAGACAAGUAAAGCUC against TYRO3 the result was seed-corrected z-score -0.2242. With AAAGAAAUUAUAGACAGGG against DGCR8 the assay gave seed-corrected z-score 0.5495. UGCAAUACCAUUCAUAUUG against TEC read seed-corrected z-score 0.1521.

Result for AUAGCAUUGAUUUCGACAG against C1orf210 was seed-corrected z-score 0.1957. For UUCAAUACAUCUAUAAGGC against ZNF485 the result was seed-corrected z-score -1.173. Result for UUUGUAGGCACUUCCGAUC against ADAM23 was seed-corrected z-score -0.2457. UACGAUGUACGUGUUGUCC against SULF2 read seed-corrected z-score 0.05746.

AGAUGAACCAGAACUGCGC against SLAIN2 read seed-corrected z-score 0.3505. Result for UCAUCCACCACUCUGUUGG against ESYT3 was seed-corrected z-score -0.09196. UUACGUAAAAACUCCAGUG against UBQLN3 gave seed-corrected z-score -0.06323. For UAUAUUGUACUCUGGAUUC against PCDHGB4 the result was seed-corrected z-score 0.8195.

For UCAAUGUAGCCGUGCAGGG against LHX6 the result was seed-corrected z-score 0.2991. AUAGUGGUAACUGAGGCCU against DPF2 read seed-corrected z-score -0.4063. UCAUGUAACACGGCCCUUG against TMCO3 gave seed-corrected z-score -1.317. For UACGUCCAAAAGUUCUUCC against MTHFD2L the result was seed-corrected z-score -1.402.

AAAUGUCCAAUUGCAACAG against AQP4 gave seed-corrected z-score 0.7579. With UUCCGUUUGGGACUUUAGC against SLC45A4 the assay gave seed-corrected z-score 0.07855. Result for AUCAUUACCAAGACAGUGC against OR4K5 was seed-corrected z-score 0.1248. Result for ACAUGUUAAGGCAUCAUGG against ARHGDIA was seed-corrected z-score 0.3709.

Result for UGAGUACUAACAUCAAUCC against COPS5 was seed-corrected z-score 0.01552. For UCUCGAAACAGAGUUCUUC against KIAA0556 the result was seed-corrected z-score 0.5097. UUGCGUUUAGGCACCCAGG against ARRDC1-AS1 gave seed-corrected z-score 0.5106. Result for UCCUUCUCAGGCUCGUUGU against DLX2 was seed-corrected z-score -0.3302.

Result for UAUCUGGAAGCCUUGAUGA against LOC646268 was seed-corrected z-score 1.01. UUUGCUUCAAGUGCUGAGA against SEC14L6 read seed-corrected z-score -0.04187. Result for UGGUGUCACAGAGAUAGAC against UMOD was seed-corrected z-score -0.06855. For UCUUUGAGCAUCGAGUCCG against CENPM the result was seed-corrected z-score 0.05403.

ACAAGUUGAAGUUUCCUCC against PHF20L1 gave seed-corrected z-score 0.05225. For UUCUCACUCAGUAAGUAGG against CDKN2AIPNLP1 the result was seed-corrected z-score 0.07278. For UCAUUGUGGAUAGCAUCGC against POLR1E the result was seed-corrected z-score -0.479. UUCGAAAUCAAACUUGUGG against NLRC4 read seed-corrected z-score -0.2607.

UUACUGAUAAAGGCCCAGG against PHC1 read seed-corrected z-score -0.4794. With UACUCGUACAUUUCCUCAG against DSEL the assay gave seed-corrected z-score -0.25. Result for UAUGGUUUCUGUCCCAUAU against ZNF222 was seed-corrected z-score 0.06579. AGUGUCAUAACAGACAUCC against PLA2G12B read seed-corrected z-score 0.4651.

With UAUUGAUUGUGGUAGACGC against BPTF the assay gave seed-corrected z-score 0.06869. UUAGAUGGAGAUACAGCCC against MAP7 read seed-corrected z-score 0.1539. Result for UUUGGGUCAAGCCCUAACC against HIBADH was seed-corrected z-score 0.02847. Result for UGCAGUAUAGAAGUCAUCG against HGSNAT was seed-corrected z-score -1.413.

The last 3 entries again:

Result for UUAGAUGGAGAUACAGCCC against MAP7 was seed-corrected z-score 0.1539.
Result for UUUGGGUCAAGCCCUAACC against HIBADH was seed-corrected z-score 0.02847.
Result for UGCAGUAUAGAAGUCAUCG against HGSNAT was seed-corrected z-score -1.413.

From PubChem BioAssay record AID1159506 (NCATS, 2015).